In all, about 330,000 compounds went through this assay and fewer than 10 were called active. Inconclusive means that the source gave no clear call. Such entries were picked first, then a sample of the others. Calls follow the shape of the dose curve; as a rule, active = well fitted activation curve with a large enough effect; inconclusive = small, poorly fitted or top-dose-only effect, or another doubt; inactive = no such curve, though single readings can be large or run the other way. A potency beside an inconclusive call is a rough fit, not a confirmed value.
Assay: Activators of T cell receptors: qHTS campaign; as to activation of IL-2 secretion: % of control where 0% means no effect
Conditions: primary human leukocytes, anti-CD3, IL-2 HTRF, 48 h; activation of IL-2 secretion: at the top concentration
Outline: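 Using a-CD3 beads without co-stimulation, primary human leukocytes were exposed to compounds for 48 hr. An HTRF IL-2 kit measured the cytokine, with europium-to-d2 energy transfer producing emission at 665nm upon 320nm excitation.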
With O=C(/C=C/c1cccc([N+](=O)[O-])c1)Nn1c(-c2ccccc2F)nc2ccccc2c1=O the Potency was inconclusive: 5.01 µM [activator, partial curve, poor fit]. In the case of CCOC(=O)C1=C(O)/C(=C/c2ccc(OCC(=O)O)c(OC)c2)SC1=Nc1ccc(OC)cc1, the Potency is reported as inconclusive: 63.1 µM [activator, partial curve, poor fit]. In the case of c1cncc(-c2nc(NCc3ccco3)c3ccccc3n2)c1, the “activation of IL-2 secretion” value is reported as inactive: -5.09%. For CC(=O)c1cccc(NC(=O)c2ccc(NS(C)(=O)=O)cc2)c1, the Potency was inconclusive: 3.98 µM [activator, partial curve, poor fit]. In the case of CC(C)(C)S(=O)(=O)c1cnc(-c2ccccn2)nc1N, the “activation of IL-2 secretion” value is reported as inactive: 2.21%. For CCCCc1ccc(NC(=O)COc2ccc(C(=O)Nc3ccccc3OC)cc2)cc1, the Potency was inconclusive: 10 µM [activator, partial curve, poor fit]. With Cc1nc(SCC(=O)N2CCOCC2)c2c(=O)n(C)c(=O)n(CC(C)C)c2n1 the Potency was inconclusive: 20 µM [activator, partial curve, poor fit]. In the case of COc1ccc2cc(/C=N/NC(=O)CN(c3ccccc3)S(=O)(=O)c3ccccc3)c(Cl)nc2c1, the Potency is reported as inconclusive: 3.16 µM [activator, partial curve, poor fit]. For O=C(CN1CCCCCC1)N/N=C/c1ccc(Cl)c(Cl)c1, the Potency was inconclusive: 3.55 µM [activator, full curve, poor fit]. In the case of Cc1scc(C(=O)NNC(=S)NCC2CCCO2)c1-c1ccccc1 (stereo not given), the Potency is reported as inconclusive: 8.91 µM [activator, partial curve, poor fit]. With CCCCOc1ccc(C(=O)N=c2sccn2C)cc1OC the “activation of IL-2 secretion” value was inactive: 2.95%. For Cc1ccc(C)c(NC(=S)c2nc3ccccc3s2)c1, the Potency was inconclusive: 3.98 µM [activator, partial curve, poor fit]. With COC(=O)COc1ccc(C(C2C(=O)CC(C)(C)CC2=O)C2C(=O)CC(C)(C)CC2=O)cc1 the “activation of IL-2 secretion” value was inactive: -0.531%. For S=C(Nc1ccc2nsnc2c1)NC1CCCCC1, the Potency was inconclusive: 79.4 µM [activator, partial curve, poor fit]. For N=c1c2c(n(Cc3ccccc3)c3c1CCC3)CCC2, the “activation of IL-2 secretion” value was inactive: 0.171%. For CCCCCCCCN1[C@@H](CC(=O)O)c2cc(C(F)(F)F)ccc2S1(=O)=O, the “activation of IL-2 secretion” value was inactive: -1.75%. In the case of CCN(CC)S(=O)(=O)c1cc(NC(=O)C(C)OC(=O)c2[nH]c(C)c(C(C)=O)c2C)ccc1C (stereo not given), the Potency is reported as inconclusive: 5.01 µM [activator, full curve, poor fit]. With COc1ccc(C(=O)Sc2ccc(C)cc2)cc1OC the “activation of IL-2 secretion” value was inactive: 1.56%. In the case of c1ccc(-c2cc(-c3ccncc3)nc3ccc4ccccc4c23)cc1, the Potency is reported as inconclusive: 1.58 µM [activator, full curve, poor fit]. With CCc1ccc(C(C(=O)NC2CCCC2)N(C(=O)/C=C/C(=O)Nc2cc(C)on2)c2ccccc2C)cc1 (stereo not given) the Potency was inconclusive: 1 µM [activator, single point]. For CC(NC(=O)NC12CC3CC(CC(C3)C1)C2)C1CCCO1 (stereo not given), the Potency was inconclusive: 7.08 µM [activator, partial curve, poor fit]. For O=C1CC(c2ccc(O)c(O)c2)Oc2cc(O)cc(O)c21 (stereo not given), the “activation of IL-2 secretion” value was inactive: 6.99%. In the case of c1cnc2ccc(C(c3nnnn3C3CCCC3)N3CCSCC3)cc2c1 (stereo not given), the Potency is reported as inconclusive: 5.62 µM [activator, full curve, poor fit]. With CCc1nnc(NC(=O)c2ccc(COc3ccc(C)cc3)o2)s1 the “activation of IL-2 secretion” value was inactive: -0.676%. With COc1cc(/C=C/C(=O)Nc2ccc(C)cc2)cc(OC)c1OC the Potency was inconclusive: 3.16 µM [activator, partial curve, poor fit]. With O=C(O)/C=C\C(=O)Nc1ccccc1C#Cc1ccccc1 the “activation of IL-2 secretion” value was inactive: 1.81%. With COc1cc(/C=N/Nc2nc(C)cc(C)n2)ccc1OC(=O)c1ccco1 the Potency was inconclusive: 17.8 µM [activator, partial curve, poor fit]. With N/C(=N\OC(=O)c1cc(Cl)ccc1Cl)c1ccccn1 the “activation of IL-2 secretion” value was inactive: 6.16% [at 46.1 µM]. With O=C1C2C3C=CC(C2C(=O)N1C1CCCCC1)C1C2C(=O)N(C4CCCCC4)C(=O)C2C31 (stereo not given) the Potency was inconclusive: 12.6 µM [activator, partial curve, poor fit]. For Cc1nn(-c2ccccc2)c(C)c1/C=C/C(=O)OCC(=O)Nc1ncc(Cl)cc1Cl, the Potency was inconclusive: 2.82 µM [activator, full curve, poor fit]. For O=C(NCC(c1ccc(F)cc1)N1CCOCC1)c1ccc(OCc2ccccc2)cc1 (stereo not given), the Potency was inconclusive: 2.82 µM [activator, partial curve, poor fit]. With CN(C)c1ccc(/C=C/c2ccc3ccccc3[n+]2C)cc1 the Potency was inconclusive: 79.4 µM [activator, partial curve, poor fit]. With COc1ccc(/C=C/C(=O)OCC(=O)NCc2ccco2)cc1OC the Potency was inconclusive: 11.2 µM [activator, partial curve, poor fit]. In the case of Cc1ccc(S(=O)(=O)N(C)CCCC(=O)Nc2cccc3ccccc23)cc1, the Potency is reported as inconclusive: 15.8 µM [activator, partial curve, poor fit]. With COc1ccc(/C=C2/SC(=O)N(CCC(=O)Nc3ccc(C)cc3)C2=O)cc1OC the Potency was inconclusive: 39.8 µM [activator, single point]. For Cc1cc(C)c(C)c(S(=O)(=O)N2CCN(CC(=O)Nc3ccc([N+](=O)[O-])cc3)CC2)c1C, the Potency was inconclusive: 2.24 µM [activator, full curve, poor fit]. In the case of Cc1ccc(C(=O)N/C(=C\c2ccco2)C(=O)NCc2cccnc2)cc1, the Potency is reported as inconclusive: 5.62 µM [activator, partial curve, poor fit]. For COc1ccccc1/C=C/C1(C(=O)NC2CCCC2)CC(=O)N1c1ccccc1 (stereo not given), the “activation of IL-2 secretion” value was inactive: 1.05%. For O=C1CCCc2c1[nH]c1ccc(Cl)cc21, the Potency was inconclusive: 7.08 µM [activator, partial curve, poor fit]. In the case of CC(C)(C)N/N=C/c1c(O)n(-c2ccc(Cl)cn2)c(=O)c2ccccc12, the Potency is reported as inconclusive: 11.2 µM [activator, partial curve, poor fit]. In the case of COc1ccc(-c2c(C#N)c(N)nc3c2CCc2ccccc2-3)cc1OC, the “activation of IL-2 secretion” value is reported as inactive: -2.76%. For COc1ccc(OC)c(N2C(N)=NC(N)=NC23CCCC3)c1, the “activation of IL-2 secretion” value was inactive: 1.65%. For Cc1ccc(NC(=S)c2ccc(N(C)C)cc2)cc1, the Potency was inconclusive: 31.6 µM [activator, single point]. In the case of Oc1cccc(C(=S)N2CCCCC2)c1, the “activation of IL-2 secretion” value is reported as inactive: -1.56%. With CCOC(=O)C1=C(O)/C(=C/c2ccc(OCC(=O)O)c(OC)c2)SC1=Nc1ccc(OCC)cc1 the Potency was inconclusive: 79.4 µM [activator, partial curve, poor fit].

Reference: PubChem BioAssay AID504894 (National Center for Advancing Translational Sciences (NCATS), 2011)
